Data as given in PubChem BioAssay AID1159578 (Peter MacCallum Cancer Centre, 2015)
In all, the deposit lists about 18,000 reagents; shown is a part drawn at random. About 1,030 of all reagents (5.7%) count as active. 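Inactive calls also include pools with fewer than 3300 nuclei, whose migration was not assessed.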 Raw values are not corrected between plates. A number with no mark means an inactive call.

Purpose: 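Knock-downs that alter how fast lymphatic endothelial cells migrate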 (primary screen)
System: human lymphatic endothelial cells
Reagents: siRNA pool against human genes, 40 nM
Time to read-out: 48 h after transfection
Measured: 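High-content imaging of dye-stained cells in a scratch assay measures filled wound area and nuclei per well; duplicate means given as ratio to mock and robust z-score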
Scale: migration robust z-score: higher = faster migration into the scratch; migration relative to mock: higher = more scratch area covered than mock; nuclei per well: higher = more cells in the well
Call rule: 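Migration changed when robust z exceeds 2 or falls below -2 and mean nuclei number is at least 3300; otherwise not called changed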
Calls: active = migration changed; inactive = no migration change, or too few cells

gene symbol | migration robust z-score | migration class with cell-count check | migration relative to mock | nuclei per well, duplicate mean
CIAPIN1 | 0.28 | migration z between -2 and 2; enough cells | 0.96 | 6002
METTL3 | 0.39 | migration z between -2 and 2; enough cells | 0.88 | 4784
PPP1R26 | -0.83 | migration z between -2 and 2; enough cells | 0.68 | 4233
CTDSPL | 0.58 | migration z between -2 and 2; enough cells | 1.04 | 6272
SCARA3 | -0.57 | migration z between -2 and 2; enough cells | 0.7 | 4463
TCAF1 | -0.01 | migration z between -2 and 2; enough cells | 0.88 | 5807
FKBP15 | -0.76 | migration z between -2 and 2; enough cells | 0.69 | 6430
SYNGR1 | -0.24 | migration z between -2 and 2; enough cells | 0.82 | 4998
TM9SF3 | -0.14 | migration z between -2 and 2; enough cells | 0.85 | 5966
NHLRC1 | 0.78 | migration z between -2 and 2; enough cells | 0.96 | 6742
P4HTM | -0.44 | migration z between -2 and 2; enough cells | 0.72 | 6286
JMJD4 | 0.87 | migration z between -2 and 2; enough cells | 1.1 | 6698
SF3B6 | 2.29 (active) | migration z above 2; enough cells | 1.48 | 5819
ZNF43 | -0.43 | migration z between -2 and 2; enough cells | 0.77 | 4691
MAFK | -0.35 | migration z between -2 and 2; enough cells | 0.8 | 6583
PPP1R1A | -0.99 | migration z between -2 and 2; enough cells | 0.62 | 5218
NR2E1 | -0.15 | migration z between -2 and 2; enough cells | 0.77 | 7774
LMBRD1 | -0.38 | migration z between -2 and 2; enough cells | 0.78 | 6409
PPP1R14B | 0.52 | migration z between -2 and 2; enough cells | 0.9 | 5977
MAP4K3 | 0.57 | migration z between -2 and 2; enough cells | 0.92 | 6844
EXOSC10 | -0.52 | migration z between -2 and 2; enough cells | 0.7 | 4870
MPHOSPH6 | 0.38 | migration z between -2 and 2; enough cells | 0.99 | 5672
MTRFR | -2.37 (active) | migration z below -2; enough cells | 0.26 | 6424
ISCU | 0.1 | migration z between -2 and 2; enough cells | 0.92 | 5436
BMI1 | 0.78 | migration z between -2 and 2; enough cells | 0.96 | 5718

The list goes on; the last 6 above are carried over.
gene symbol | migration robust z-score | migration class with cell-count check | migration relative to mock | nuclei per well, duplicate mean
MAP4K3 | 0.57 | migration z between -2 and 2; enough cells | 0.92 | 6844
EXOSC10 | -0.52 | migration z between -2 and 2; enough cells | 0.7 | 4870
MPHOSPH6 | 0.38 | migration z between -2 and 2; enough cells | 0.99 | 5672
MTRFR | -2.37 (active) | migration z below -2; enough cells | 0.26 | 6424
ISCU | 0.1 | migration z between -2 and 2; enough cells | 0.92 | 5436
BMI1 | 0.78 | migration z between -2 and 2; enough cells | 0.96 | 5718
MAP2K1 | 0.34 | migration z between -2 and 2; enough cells | 0.87 | 4824
SETD9 | -2.7 (active) | migration z below -2; enough cells | 0.17 | 4054
DEDD2 | 0.12 | migration z between -2 and 2; enough cells | 0.92 | 6069
OR7C2 | 0.7 | migration z between -2 and 2; enough cells | 1.06 | 4410
PCDHGB7 | 0.58 | migration z between -2 and 2; enough cells | 1.04 | 6011
SLC39A3 | 1.61 | migration z between -2 and 2; enough cells | 1.12 | 4142
CEP112 | 0.94 | migration z between -2 and 2; enough cells | 1.13 | 7257
CCN6 | -0.73 | migration z between -2 and 2; enough cells | 0.67 | 6066
UNC13C | -0.17 | migration z between -2 and 2; enough cells | 0.84 | 4953
DNAJC24 | -0.2 | migration z between -2 and 2; enough cells | 0.83 | 5600
GTF2IRD1 | -1.15 | migration z between -2 and 2; enough cells | 0.58 | 5558
PGA4 | 0.62 | migration z between -2 and 2; enough cells | 0.92 | 4876
ANXA11 | 1.25 | migration z between -2 and 2; enough cells | 1.21 | 6076
PCDHGA12 | -0.14 | migration z between -2 and 2; enough cells | 0.85 | 5936
LMTK3 | -1.53 | migration z between -2 and 2; enough cells | 0.51 | 4868
MUC2 | 0.5 | migration z between -2 and 2; enough cells | 1.02 | 5317
CSN2 | 0.32 | migration z between -2 and 2; enough cells | 0.97 | 5779
RABGGTB | -0.54 | migration z between -2 and 2; enough cells | 0.75 | 6610
SLC25A33 | 2.51 (active) | migration z above 2; enough cells | 1.54 | 6567
CYP3A5 | -0.55 | migration z between -2 and 2; enough cells | 0.74 | 5340
IMP3 | -1.23 | migration z between -2 and 2; enough cells | 0.57 | 5968
CDK13 | -4.41 (active) | migration z below -2; enough cells | -0.04 | 3479
PPP1R3C | -0.46 | migration z between -2 and 2; enough cells | 0.72 | 5926
APOF | 0.13 | migration z between -2 and 2; enough cells | 0.83 | 6338
ZMYND15 | 1.48 | migration z between -2 and 2; enough cells | 1.27 | 5616
TIMM29 | 1.85 | migration z between -2 and 2; enough cells | 1.36 | 4898
MROH7 | 1.11 | migration z between -2 and 2; enough cells | 1.18 | 6221
ICOSLG | -1.14 | migration z between -2 and 2; enough cells | 0.6 | 4096
ENHO | -0.61 | migration z between -2 and 2; enough cells | 0.73 | 5038
PFKFB4 | -0.02 | migration z between -2 and 2; enough cells | 0.8 | 5055
CEP43 | 0.76 | migration z between -2 and 2; enough cells | 1.07 | 6708
LRCH3 | 0.4 | migration z between -2 and 2; enough cells | 0.99 | 5339
OR10A5 | 0.25 | migration z between -2 and 2; enough cells | 0.94 | 5239
ZDHHC17 | 1.44 | migration z between -2 and 2; enough cells | 1.25 | 6466
MEGF10 | -0.88 | migration z between -2 and 2; enough cells | 0.66 | 5900
CPA6 | 0.76 | migration z between -2 and 2; enough cells | 0.95 | 5603
SLCO1B1 | -1.82 | migration z between -2 and 2; enough cells | 0.46 | 5024
SLC38A4 | 0.54 | migration z between -2 and 2; enough cells | 0.91 | 5428
P2RY14 | -0.72 | migration z between -2 and 2; enough cells | 0.66 | 7020
NPR2 | -0.54 | migration z between -2 and 2; enough cells | 0.7 | 6470
KIAA0513 | -0.38 | migration z between -2 and 2; enough cells | 0.78 | 5774
H2AC13 | -1.94 | migration z between -2 and 2; enough cells | 0.38 | 4067
PLAG1 | -0.05 | migration z between -2 and 2; enough cells | 0.8 | 4368
CPT2 | -1.01 | migration z between -2 and 2; enough cells | 0.61 | 4042
C4orf33 | -1.83 | under 3300 nuclei; migration not judged | 0.42 | 3015
VPS41 | -0.29 | migration z between -2 and 2; enough cells | 0.75 | 5553
PDC | 0.7 | migration z between -2 and 2; enough cells | 0.94 | 5020
ZNF416 | 0.99 | migration z between -2 and 2; enough cells | 1.15 | 5599
